Assay results reported in PubChem BioAssay AID322 (DTP/NCI, 2004).
The list is a part of this screen's results and no random one: it is rich in T/C values a quarter to a half above the control, in often repeated tests (any T/C) and in doses without a T/C. Other doses and runs of a compound stand elsewhere. T/C gives the treated animals as a percentage of the vehicle group. Some doses have a count of surviving animals in place of a T/C: the source holds a T/C of zero for them, seemingly a mark for toxic or unscored doses. Some survivor counts are full or nearly so, which does not show that the dose was tolerated: the source hardly ever lists a survival T/C far under the control, and the zero likely stands for such cases as well. Counts of survivors are from the toxicity check (mostly the fifth day) where no day follows; animals may have died later. Schedules are NCI's codes, read here as Q, the interval in days (D) or hours (H), X, the number of doses. Some doses were run more than once; the values are given in rising order.

Test system: CD2F1 mice, P388/ADR leukemia ip, median survival T/C
Test: NCI In Vivo Anticancer Drug Screen. Data for tumor model P388 Leukemia resistant to Adriamycin; NSC 123127, Developed at Scr 08 (intraperitoneal) in CD2F1 (CDF1) mice
Settings: T/C endpoint: median survival time, higher T/C = longer survival
Procedure: The antitumor activity of compounds was measured in mice bearing transplantable tumors. Survival or tumor size were measured and the results are expressed as the measurement made in the treated group (T) divided by the measurement made in the vehicle treated control group (C). The tumor model used in this assay is P388 Leukemia resistant to Adriamycin; NSC 123127, Developed at Scr 08 (intraperitoneal) in CD2F1 (CDF1) mice

With `O=C1CN(CCN2CC(=O)N(CN3CCOCC3)C(=O)C2)CC(=O)N1CN1CCOCC1` the survivor count (dose: 200.0 mg/kg/injection, schedule: Q01DX005 (ip), vehicle: water) was 6 of 10.

With `O=C(Oc1ccccc1)c1cc(O)c(O)c(O)c1` the survivor count (dose: 400.0 mg/kg/injection, schedule: Q01DX005 (ip), vehicle: saline with Tween-80) was 3 of 6.

In the case of `COC(=O)C[C@](O)(CCCC(C)(C)O)C(=O)O[C@@H]1C(OC)=C[C@]23CCCN2CCc2cc4c(cc2[C@H]13)OCO4`, the survivor count (dose: 1.3 mg/kg/injection, schedule: Q01DX009 (ip), vehicle: acid diluted with saline) is reported as 7 of 10 and the survivor count (dose: 2.0 mg/kg/injection, schedule: Q01DX009 (ip), vehicle: acid diluted with saline) is reported as 4 of 10 and 10 of 10.
